The supplement of paper PMC9226226
Values joined by “and” are separate entries in the source; they are usually repeats but may differ in a detail not shown here. Equal values may be shown once. This is one part of the list. Some well-known active drugs show little effect in this data set, so a weak value is uncertain.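 Prematurely aging human mesenchymal stem cells without the Werner syndrome gene were monitored by automated live-cell imaging over three biological repeats. The top twenty drugs for increasing growth versus vehicle moved forward; no fixed cutoff was specified.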

Test system: Werner syndrome hMSCs (WRN-/-)
Assay: relative cell density (fold change vs vehicle control); higher = more proliferation (geroprotective)
Conditions: concentration (umol/L): 1, 6 days

| SMILES | relative cell density (vehicle: DMSO) | relative cell density (vehicle: Water) |
| --- | --- | --- |
| Cc1ccc(=O)n(-c2ccccc2)c1 | 1.08 |  |
| Cc1c(-c2cnccn2)ssc1=S | 0.993 |  |
| CC(C)(CO)C(O)C(=O)NCCC(=O)O (centres undefined) | 1.44 |  |
| CC(C)OC(=O)OCOP(=O)(CO[C@H](C)Cn1cnc2c(N)ncnc21)OCOC(=O)OC(C)C | 1 |  |
| C[N+](C)(C)CC(=O)O | 0.975 |  |
| OCCN(CCO)c1nc(N2CCCCC2)c2nc(N(CCO)CCO)nc(N3CCCCC3)c2n1 | 1.07 |  |
| CN1CCN(C(c2ccccc2)c2ccccc2)CC1 | 0.743 |  |
| COC(=O)[C@@H]1CC2=CC(=O)CC[C@]2(C)[C@@]23O[C@@H]2C[C@@]2(C)[C@@H](CC[C@@]24CCC(=O)O4)[C@H]13 |  | 0.667 |
| Cc1ccc(F)c(NC(=O)Nc2ccc(-c3cccc4[nH]nc(N)c34)cc2)c1 | 1.43 |  |
| C[C@]12CC[C@@H]3c4ccc(OC(=O)c5ccccc5)cc4CC[C@H]3[C@@H]1CC[C@@H]2O | 1.09 |  |
| O=c1oc2cc(O)ccc2s1 | 1.16 |  |
| O=C(O)c1ccccc1O | 1.26 |  |
| CCOC(=O)[C@H](CCc1ccccc1)N[C@@H](C)C(=O)N1C(=O)N(C)C[C@H]1C(=O)O | 1.34 |  |
| C[C@@H]1C[C@H]2[C@@H]3CCC4=CC(=O)C=C[C@]4(C)[C@@]3(Cl)[C@@H](O)C[C@]2(C)[C@@]1(OC(=O)c1ccco1)C(=O)CCl | 1.15 |  |
| C[C@]12CCC3=C4CCC(=O)C=C4CC[C@H]3[C@@H]1CC[C@@]2(O)CC#N | 0.83 |  |
| O=C(O)c1cc(/N=N/c2ccc(S(=O)(=O)Nc3ccccn3)cc2)ccc1O | 0.965 |  |
| C=C1c2cccc(O)c2C(O)=C2C(=O)[C@]3(O)C(O)=C(C(N)=O)C(=O)[C@@H](N(C)C)[C@@H]3[C@@H](O)[C@H]12 |  | 1.13 |
| CC(C)N(CCCCOCC(=O)NS(C)(=O)=O)c1cnc(-c2ccccc2)c(-c2ccccc2)n1 | 0.818 |  |
| C#C[C@]1(O)CC[C@H]2[C@@H]3CCC4=CC(=O)CC[C@@H]4[C@H]3C(=C)C[C@@]21CC | 1.34 |  |
| NC(=O)c1ccc(I)c([N+](=O)[O-])c1 | 1.13 |  |
| N/N=c1\[nH][nH]/c(=N\N)c2ccccc12 | 1.26 |  |

| SMILES | relative cell density (vehicle: DMSO) | relative cell density (vehicle: Water) |
| --- | --- | --- |
| CN/C(=N\CCSCc1nc[nH]c1C)NC#N | 1.09 |  |
| C/C(=C\C(=O)OCCCCCCCCC(=O)O)C[C@@H]1OC[C@H](C[C@@H]2O[C@H]2[C@@H](C)[C@H](C)O)[C@@H](O)[C@H]1O | 0.401 and 1.18 |  |
| CS(=O)(=O)c1cccc(C[C@H](NC(=O)c2c(Cl)cc3c(c2Cl)CCN(C(=O)c2ccc4ccoc4c2)C3)C(=O)O)c1 | 1.04 |  |
| Oc1cccc(O)c1 | 1.27 |  |
| C[C@@H](O[C@H]1OCCN(Cc2n[nH]c(=O)[nH]2)[C@H]1c1ccc(F)cc1)c1cc(C(F)(F)F)cc(C(F)(F)F)c1 | 1.25 |  |
| CCCCN(CCCC)CC(O)c1cc(Cl)cc2c1-c1ccc(Cl)cc1/C2=C/c1ccc(Cl)cc1 (centres undefined) | 0.775 |  |
| Cc1cn(-c2cc(NC(=O)c3ccc(C)c(Nc4nccc(-c5cccnc5)n4)c3)cc(C(F)(F)F)c2)cn1 | 1.09 |  |
| Cc1cc(O)cc(C)c1Cl | 0.692 |  |
| COc1nccnc1NS(=O)(=O)c1ccc(N)cc1 | 1.33 |  |
| CC(=O)c1c(C)c2cnc(Nc3ccc(N4CCNCC4)cn3)nc2n(C2CCCC2)c1=O |  | 0.621 and 1.03 |
| CC(C)OC(=O)C(C)(C)Oc1ccc(C(=O)c2ccc(Cl)cc2)cc1 | 1.15 |  |
| OCCOc1ccc(/C(=C(/CCCl)c2ccccc2)c2ccccc2)cc1 | 0.786 |  |
| Cc1ccc(NC(=O)C2(c3ccc4c(c3)OC(F)(F)O4)CC2)nc1-c1cccc(C(=O)O)c1 | 1.05 |  |
| CNC(=O)c1ccc(Nc2ncc(C(F)(F)F)c(NCc3nccnc3N(C)S(C)(=O)=O)n2)cc1 |  | 0.14 |
| Cc1cc2c(s1)Nc1ccccc1N=C2N1CCN(C)CC1 | 1.38 |  |
| O=S(=O)(O)Oc1ccc(C(c2ccc(OS(=O)(=O)O)cc2)c2ccccn2)cc1 | 0.779 |  |
| CSc1nc2cc(Cl)c(Oc3cccc(Cl)c3Cl)cc2[nH]1 | 0.52 |  |
| NC(=O)c1cnccn1 | 1.03 |  |
| CO[C@@H]1[C@H](OC(=O)/C=C/C=C/C=C/C=C/C(=O)O)CC[C@]2(CO2)[C@H]1[C@@]1(C)O[C@@H]1CC=C(C)C | 0.644 |  |
| Cn1cnc2c(F)c(Nc3ccc(Br)cc3F)c(C(=O)NOCCO)cc21 | 1.12 |  |
| CC(=O)O[C@H]1C(=O)[C@@]2(C)[C@H]([C@H](OC(=O)c3ccccc3)[C@]3(O)C[C@H](OC(=O)[C@H](O)[C@@H](NC(=O)c4ccccc4)c4ccccc4)C(C)=C1C3(C)C)[C@]1(OC(C)=O)CO[C@@H]1C[C@@H]2O | 0.465 |  |

| SMILES | relative cell density (vehicle: DMSO) | relative cell density (vehicle: Water) |
| --- | --- | --- |
| COc1cccc2c1C(=O)c1c(O)c3c(c(O)c1C2=O)C[C@@](O)(C(=O)CO)C[C@@H]3O[C@H]1C[C@H](N)[C@@H](O)[C@H](C)O1 | 0.0251 |  |
| CCCN(CCC)CCc1cccc2c1CC(=O)N2 | 1.48 |  |
| O[C@H]1[C@H](O)[C@@H](O)[C@H](O)[C@@H](O)[C@H]1O | 1.51 |  |
| COc1ccc2cc([C@H](C)C(=O)O)ccc2c1 | 0.946 |  |
| C[C@]12CCC(=O)C=C1[C@@H]1C[C@@H]1[C@H]1[C@@H]3[C@@H]4C[C@@H]4[C@@]4(CCC(=O)O4)[C@@]3(C)CC[C@@H]12 | 1.08 |  |
| Cc1ncc([N+](=O)[O-])n1CC(C)O (centres undefined) | 1.25 |  |
| COC(=O)NC(C(=O)N1CCCC1c1ncc(-c2ccc(-c3ccc(-c4cnc(C5CCCN5C(=O)C(NC(=O)OC)C(C)C)[nH]4)cc3)cc2)[nH]1)C(C)C (centres undefined) | 1.09 |  |
| Cc1ccc(-n2nc(C(C)(C)C)cc2NC(=O)NCc2cc(F)ccc2Oc2ccc3c(cnn3CCO)c2)cc1 | 1.36 |  |
| O=c1n(CCCN2CCN(c3cccc(Cl)c3)CC2)nc2ccccn12 |  | 0.855 |
| O=C(O)c1cc(=O)[nH]c(=O)[nH]1 | 1.2 |  |
| CC1(C)S[C@@H]2[C@H](NC(=O)[C@H](N)c3ccccc3)C(=O)N2[C@H]1C(=O)O | 1.02 and 1.06 |  |
| C=C[C@H]1CN2CC[C@H]1C[C@H]2[C@H](O)c1ccnc2ccc(OC)cc12 | 1.13 |  |
| Nc1c(CC(=O)O)cccc1C(=O)c1ccc(Br)cc1 | 0.883 |  |
| CC(C)(C)c1nc(-c2cccc(NS(=O)(=O)c3c(F)cccc3F)c2F)c(-c2ccnc(N)n2)s1 | 0.527 |  |
| C[C@H]1O[C@@H](n2cc(F)c(=O)[nH]c2=O)[C@H](O)[C@@H]1O | 1.07 |  |
| COc1c(C)c2c(c(O)c1C/C=C(\C)CCC(=O)O)C(=O)OC2 | 1.29 |  |
| O=C(NCCN1CCOCC1)c1ccc(Cl)cc1 | 0.924 |  |
| C[C@H](Cc1cc2c(c(C(N)=O)c1)N(CCCO)CC2)NCCOc1ccccc1OCC(F)(F)F | 0.979 |  |
| CNCCCC12CCC(c3ccccc31)c1ccccc12 | 1.2 |  |
| CC[C@H]1OC(=O)C[C@@H](O)[C@H](C)[C@@H](O[C@@H]2O[C@H](C)[C@@H](O)[C@H](N(C)C)[C@H]2O)[C@@H](CCN2C[C@H](C)C[C@H](C)C2)C[C@@H](C)C(=O)/C=C/C(C)=C/[C@@H]1CO[C@@H]1O[C@H](C)[C@@H](O)[C@@H](OC)[C@H]1OC | 1.01 |  |
| CO/N=C(\C(=O)N[C@@H]1C(=O)N2C(C(=O)[O-])=C(C[N+]3(C)CCCC3)CS[C@H]12)c1csc(N)n1 | 0.515 |  |

| SMILES | relative cell density (vehicle: DMSO) | relative cell density (vehicle: Water) |
| --- | --- | --- |
| OC(c1cc(C(F)(F)F)nc2c(C(F)(F)F)cccc12)C1CCCCN1 (centres undefined) | 0.979 |  |
| CCCCCC(=O)O[C@]1(C(C)=O)CC[C@H]2[C@@H]3CCC4=CC(=O)CC[C@]4(C)[C@H]3CC[C@@]21C | 1.34 |  |
| Cc1cc(C)cc(OCC2CNC(=O)O2)c1 (centres undefined) | 1.19 |  |
| CC(=O)O[C@H]1C[C@@H]2CC[C@@H]3[C@H](CC[C@@]4(C)[C@H]3C[C@H]([N+]3(C)CCCCC3)[C@@H]4OC(C)=O)[C@@]2(C)C[C@@H]1N1CCCCC1 | 1.02 |  |
| C[C@@H](O)[C@H]1C(=O)N2C(C(=O)O)=C(S[C@@H]3CN[C@H](C(=O)N(C)C)C3)[C@H](C)[C@H]12 | 1.21 |  |
| C=C1CCN([C@H](C)[C@](O)(Cn2cncn2)c2ccc(F)cc2F)CC1 | 1.05 |  |
| CCN(CC)C(=O)/C(C#N)=C/c1cc(O)c(O)c([N+](=O)[O-])c1 | 1.43 |  |
| C[C@@H]1O[C@@H](OC[C@H]2O[C@@H](Oc3c(-c4ccc(OCCO)c(OCCO)c4)oc4cc(OCCO)cc(O)c4c3=O)[C@H](O)[C@@H](O)[C@@H]2O)[C@H](O)[C@H](O)[C@H]1O | 1.35 |  |
| C[C@]12C=CC(=O)C=C1CC[C@H]1[C@@H]3C[C@@H](O)[C@](O)(C(=O)CO)[C@@]3(C)C[C@H](O)[C@@]12F | 1.12 |  |
| CC1(C)O[C@@H]2C[C@H]3[C@@H]4CCC5=CC(=O)CC[C@]5(C)[C@@]4(F)[C@@H](O)C[C@]3(C)[C@]2(C(=O)CCl)O1 | 1.35 |  |
| C[C@@H](c1nc(-c2ccc(C#N)cc2)cs1)[C@](O)(Cn1cncn1)c1cc(F)ccc1F | 0.839 |  |
| CC[C@H](C)C(=O)O[C@H]1C[C@@H](C)C=C2C=C[C@H](C)[C@H](CC[C@@H]3C[C@@H](O)CC(=O)O3)[C@H]21 | 0.357 |  |
| Clc1ccc(C(Cn2ccnc2)OCc2ccc(Sc3ccccc3)cc2)c(Cl)c1 (centres undefined) | 1.09 |  |
| CCN(CC)CCOC(=O)c1ccc(N)cc1 | 1.36 and 0.895 |  |
| COc1cc(C2Oc3cc([C@H]4Oc5cc(O)cc(O)c5C(=O)[C@@H]4O)ccc3OC2CO)ccc1O (some centres undefined) | 1.21 |  |
| CN(C)CCn1nnnc1SCC1=C(C(=O)O)N2C(=O)[C@@H](NC(=O)Cc3csc(N)n3)[C@H]2SC1 | 1.09 |  |
| CC(=O)O[C@H]1C[C@@]2(C)[C@@H](C[C@@H](O)[C@H]3[C@@]4(C)CC[C@@H](O)[C@@H](C)[C@@H]4CC[C@@]32C)/C1=C(\CCC=C(C)C)C(=O)O | 1.26 |  |
| C[C@]1(c2nc3c(C(N)=O)cccc3[nH]2)CCCN1 | 0.91 |  |
| CC(=O)N[C@@H](CS)C(=O)O | 0.939 |  |
| Cc1ccnc(NS(=O)(=O)c2ccc(N)cc2)n1 | 1.07 |  |
| CCC[S+]([O-])c1ccc2[nH]c(NC(=O)OC)nc2c1 (centres undefined) | 0.982 |  |

Laid out differently: results already given.
SMILES | relative cell density (vehicle: DMSO) | relative cell density (vehicle: Water)
CCOC(=O)[C@H](CCc1ccccc1)N[C@@H](C)C(=O)N1C(=O)N(C)C[C@H]1C(=O)O | 1.34 | 
C[C@@H]1C[C@H]2[C@@H]3CCC4=CC(=O)C=C[C@]4(C)[C@@]3(Cl)[C@@H](O)C[C@]2(C)[C@@]1(OC(=O)c1ccco1)C(=O)CCl | 1.15 | 
C[C@]12CCC3=C4CCC(=O)C=C4CC[C@H]3[C@@H]1CC[C@@]2(O)CC#N | 0.83 | 
O=C(O)c1cc(/N=N/c2ccc(S(=O)(=O)Nc3ccccn3)cc2)ccc1O | 0.965 | 
